Our source for the crude yield values is patent publication US10556933B2 (Affibody AB, priority 2007, dated 2020).

A short description of this data set: peptide synthesis. Particulars: whole synthesis.

On to “AEAKYAKEMWIAWEEIRNLPNLNGWQMTAFIAKLLDDPSQSSELLSEAKKLNDSQAPKC”, for which the crude yield is given as 15%.
